Values quoted from earlier work in patent US20040092428A1, “Oral pharmaceuticals formulation comprising paclitaxel, derivatives and methods of administration thereof” (priority 2001, published 2004).

Details: cited from earlier work

CC(=O)O[C@H]1C(=O)[C@@]2(C)[C@H]([C@H](OC(=O)c3ccccc3)[C@]3(O)C[C@H](OC(=O)[C@H](O)[C@@H](NC(=O)c4ccccc4)c4ccccc4)C(C)=C1C3(C)C)[C@]1(OC(C)=O)CO[C@@H]1C[C@@H]2O [Paclitaxel]
Solubility in water: practically insoluble
